Experimental data: patent US20240425587A1
These are yes or no findings as the source states them, for the method shown. Some entries that bind do so weakly or less than the wild type.

Sequences of proteins named here, by UniProt entry; tags and fusion partners are left off. A change or cut given only in a name is not applied to a line headed by its entry.
UniProt Q9UKJ1: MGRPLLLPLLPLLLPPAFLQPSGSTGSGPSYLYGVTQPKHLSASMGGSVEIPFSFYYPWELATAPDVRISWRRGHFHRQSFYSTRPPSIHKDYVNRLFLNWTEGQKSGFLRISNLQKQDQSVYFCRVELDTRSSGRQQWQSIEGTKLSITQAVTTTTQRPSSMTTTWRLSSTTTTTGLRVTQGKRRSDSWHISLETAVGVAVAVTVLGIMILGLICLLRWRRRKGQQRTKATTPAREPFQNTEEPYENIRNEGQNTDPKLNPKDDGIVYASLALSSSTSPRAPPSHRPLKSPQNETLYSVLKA

Columns and labels:
[1] = target: PILRA Fc (soluble human PILRA) (human) (UniProt Q9UKJ1); experiment: flow cytometry, graph 'Enhancer on CD3+T Blocking Assay': antibody mixed with PILRA-Fc, then human CD3+ T cells; bound PILRA-Fc detected with AF647 2nd Ab; partner of PILRA-Fc: PILRA ligand on the T cells
[2] = target: human PILRA on the surface of primary human macrophages or monocytes (human) (UniProt Q9UKJ1); experiment: flow cytometry competition assay, graph 'Compitition-MFI-DNR1408': macrophages with soluble antibody 30 minutes on ice; competitor: sheep anti-hPILRA APC
[3] = target: PILRA Fc (soluble human PILRA) (human) (UniProt Q9UKJ1); experiment: flow cytometry blocking assay, graph 'V1 Blocking_CD3+T Donor 906': antibody mixed with PILRA-Fc, then human CD3+ T cells; bound PILRA-Fc detected with AF647 2nd Ab; blocked partner: PILRA ligand on the T cells
[4] = target: human PILRA, G78 variant, ectopically expressed on 293 cells (human) (UniProt Q9UKJ1); experiment: screening summary, TCP groups

Binder | binding [1] | binding [3] | other results
E3 (antibody, V domains shown) VH: QAYLQQSGAELVRSGASVKMSCKASGNTFTYYNLHWIRQTPGQGLEWIGYIFPGNGDAYYNQNFKGKATLTADTSSSTAYMQISSLTFEDSAVYFCARSPHYYGSGFDYWGQGTPLTVSS VL: DIQMTQSSSYLSVSLGGGVTITCKASDHINNWLAWYQQKPGNAPRLLISGATSLETGVPSRFSGSGSGKDYTLSITSLQTEDVATYYCQQYWSTPWTFGGGTKLEIK | binds |  | 
E1 (antibody, V domains shown) VH: EVQLVESGGGLVQPGESLKLSCESNEYEFPSHDMSWVRKTPEKRLELVAAINSDGGSTYYPDTMERRFIISRDNTKKTLYLQMSSLRSEDTALYYCARQLMGTGAMDYWGQGTSVTVSS VL: DIQMTQSSSYLSVSLGGRVTITCKASDHINNWLAWYQQKPGNAPRLLISGATSLETGVPSRFSGSGSGKDYTLSITSLQTEDVATYYCQQYWSTPYTFGGGTKLEIK | binds |  | 
E15 (antibody, V domains shown) VH: QVQLQQSGAELVKPGASVKLSCKASGNTFTIYDINWVRQRPEQGLEWIGWIFPGDGSTKYNGKFKGKATLTTDKSSSTAYMQLSRLTSEDSAVYFCARRAHYYGSSFDYWGQGTTLTVSS VL: DIQMTQSSSYLSVSLGGRVTITCKASDHINNWLAWYQQKPGNGPRLLISGAISLEIGVPSRFSGSGSGKEYTLSITSLQTEDVATYYCQQYWSPPWTFGGGTKLEIK |  |  | binding [2]: binds
hPA-002 (antibody, V domains shown) VH: QVTLQESGPGILQPSQTLSLTCSFSGFSLSTFGMGVGWIRQPSGKGLEWLAHIWWDDDKYYNPALKSRLTISKDTSKNQVFLKIASVDTADIATYYCARVEDYGNPFDYWGQGTTL VL: DIQMNQSPSSLSASLGDTITITCHASQNIHVWLNWYQQKPGNIPKLLIYKASNLHTGVPSRFSGSGSGTGFTVTISSLQPEDIATYYCQQGQSYPLTFGAGTKLELK |  | binds | 
hPA-005 (antibody, V domains shown) VH: QVILKESGPGILQSSQTLSLTCSFSGFSLSTFGMGVGWIRQPSGKGLESLAHIWWDDDKFYNPALKSRLTISKDTSKSQVFLKIANVDTADIATYYCTRIEDYGSYFAYWGQGTTLTVSS VL: DVQMNQSPSSLSASLGDPITITCHASQNIHVWLNWYQQRPGNIPRLLIYKASNLHTGVPSRFSGSGSGTGFTLTISSLQPEDIATYYCQQGQSYPYTFGGGTKLEIK |  | binds | 
hPA-004 (antibody, V domains shown) VH: QVTLKESGPGMLQPSQTLSLACSFSGFSLNSFGVAVGWIRQPSGKGLEWLAHIWWDDDKSYNPALKSRLTISKDTSKNQVFLKLANVDTADTATYYCTRIADYGNHFDYWGQGTALTVSS VL: DIQMNQSPSSLSASLGDTITITCHASQNSHVWLSWYQQKPGNIPKLLIYKASNLHTGVPSRFSGSGSGTGFTLTISGLQPEDIATYYCQQGQTYPFTFGSGTKLEIK |  | binds | 
E2 (antibody, V domains shown) VH: EVQLQESGPSLVKPSQTLSLTCSVTGDSITSGYWNWIRKFPGDKLEYMGYISYTGTTYYNPSLKSRVSITRDTSKNQYYLQLHSVTTEDTATYYCARYPYGNFPFDYWGQGTTLTVSS VL: SIVMTQTPKFLLVSAGDRVTITCKASQSVRNDVAWYQQRPGQSPKLLIFYASSRYIGAPDRFTGSGYGTDFTFTISTVQAEDLAVYFCQQDYSSPYTFGGGTTLEIK | binds |  | 
C7 (antibody, V domains shown) VH: QVQLQQSGAELARPGTSVKLSCKASGYIFTDYAISWVKQRTGQGLQWIGEIYPGSDNAYYNENFKGKATLTADKSSNTAYMELRSLTSEDSAVYFCAKWAGSLFDFWGQGTALTVSS VL: DIVMTQSQKFMSTSVGDRVSVTCKASRNVGFNVAWYQQNPGQSPKALIYSASYRYSGVPDRFTGSGSGTDFTLTISDVQSEDLAEYFCHQYNSYPYTFGGGTKLEIR |  |  | binding [4]: binds
